Measurements as given in EP4825863A1, “DESIGN, PREPARATION AND APPLICATION OF TARGETED ACTIVATION ENRICHMENT TYPE NEAR-INFRARED PROBE AND PHOTOSENSITIZER” (dated 2026).
The structures given here were assigned with low confidence; some may be wrong.

Key:
HeLa cells [1] = assay: Quantification of photosensitizer enrichment in HeLa cells
Procedure: Experimental conditions: 1.5 mL of the photosensitizer ALPIN-6I (4 µM) was incubated with HeLa cells (1 × 10^5 cells) overexpressing ALP on the cell surface at 37°C for 1 hour. After incubation, the incubation medium was collected. The cells were washed twice with phenol red-free DMEM, and the wash buffer was collected. Subsequently, 200 µL of RIPA lysis buffer was added to fully lyse the cells, and the lysate was collected. ALP and BSA were added to the collected incubation medium and wash buffer to ensure complete activation of residual probes. Fluorescence intensity was measured using a fluorometer, with three parallel replicates. Probe concentration was calculated based on the standard calibration curve. Photosensitizer concentration in the cell lysate was determined using the same method. The concentration within the cells was then calculated based on the cell volume (2.6 × 10^3 µm^3 = 2.6 × 10^-12 L per cell).

HeLa cells [2] = assay: ROS production in HeLa cells (H2DCFDA)
Procedure: (§1) Experimental conditions: HeLa cells or HEK293 cells were incubated with the photosensitizer ALPIN-6I (0, 1, 2, 4 µM) or ALPIN-4I (4 µM) and the ROS probe H2DCFDA (10 µM) at 37°C for 30 minutes. After washing twice with PBS, the cells were irradiated with a 660 nm light source at 36 mW for 2 minutes, and fluorescence imaging was performed using a fluorescence microscope.

HEK293 cells = assay: ROS production in HEK293 cells (H2DCFDA, negative control cells); conditions: 660 nm light
Procedure: as §1

HeLa cells [3] = assay: Photodynamic killing of tumor cells (live/dead staining)
Procedure: Experimental conditions: HeLa cells or HEK293 cells were incubated with the photosensitizer ALPIN-6I or ALPIN-4I (4 µM) at 37°C for 1 hour. The incubation medium was then removed, and fresh medium containing FBS was added. Subsequently, the cells were irradiated with a 660 nm light source at 36 mW for 10 minutes, followed by incubation at 37°C for 24 hours. Staining was performed using a live/dead cell staining kit (Beyotime), and fluorescence imaging was performed using a fluorescence microscope.

[4] = system: mixed population of HeLa cells and HEK293 cells; assay: Selective killing in mixed HeLa and HEK293 cell population (PI staining); conditions: 4 µM, 30 minutes; 660 nm, 36 mW, 10 minutes
Procedure: Experimental conditions: A mixed population of HeLa cells and HEK293 cells (stably expressing yellow fluorescent protein) was incubated with the photosensitizer ALPIN-6I (4 µM) at 37°C for 30 minutes. The incubation medium was then removed, and fresh medium containing FBS was added. Subsequently, the cells were irradiated with a 660 nm light source at 36 mW for 10 minutes, followed by incubation at 37°C for 24 hours. PI staining was performed to identify dead cells using a live/dead cell staining kit (Beyotime), and fluorescence imaging was performed using a fluorescence microscope.

HeLa tumor [5] = assay: Real-time in vivo fluorescence imaging of HeLa tumor-bearing mice (ALPIN-6I)
Procedure: Experimental conditions: Tumor-bearing mice were first divided into three groups with three mice per group. Whole-body background fluorescence images were acquired from six nude mice using an IVIS Lumina XRMS Series III in vivo imaging system (λex = 660 nm, λem = 710 nm). The photosensitizer ALPIN-6I or ALPIN-4I was then prepared as a 40 µM solution in PBS. Each tumor-bearing mouse received 200 µL of the prepared probe solution via tail vein injection using an insulin syringe. Subsequently, whole-body fluorescence data from the experimental mice were collected using the in vivo imaging system at multiple time points (1 h, 2 h, 3 h, 4 h, 6 h, 8 h, and 24 h). For the inhibitor group, 50 µL of 10 mM Na3VO4 solution was first injected intratumorally, and 30 minutes later, ALPIN-6I was administered at the same concentration, followed by imaging at the same time points.

HeLa tumor [6] = assay: Photodynamic therapy of HeLa tumor-bearing mice; conditions: for Tumor volume: 1.1 mg/kg tail vein, 660 nm 0.5 W 10 minutes
Procedure: Experimental conditions: Tumor-bearing mice were first divided into three groups with four mice per group. The photosensitizer was administered via tail vein injection at 1.1 mg/kg. After 1 hour, the mice were irradiated with a 660 nm light source at 0.5 W for 10 minutes, and a second irradiation was performed 24 hours later. After 48 hours, the photosensitizer was re-injected, followed by light irradiation 1 hour later, and a second irradiation was performed 72 hours later. Subsequently, the tumor-bearing mice were allowed to recover spontaneously for 15 days.

[7] = system: HeLa cells overexpressing alkaline phosphatase (ALP); assay: Confocal fluorescence imaging of HeLa cells with ALPIN-7 and ALPIN-8; conditions: 5 µM
Procedure: Experimental conditions: 5 µM of the fluorescent probes ALPIN-7 and ALPIN-8 (structure shown in FIG. 22) were incubated separately with HeLa cells overexpressing ALP on the cell surface and normal HEK293 cells with low ALP expression in a culture dish at 37°C for 30 minutes. Alternatively, HeLa cells were pre-treated with the alkaline phosphatase inhibitor Na3VO4 for 1 hour, followed by incubation with the probes for 30 minutes. After incubation, the probe-containing culture medium was discarded, and the cells were washed once with PBS (pH = 7.4). Subsequently, 1 mL of phenol red-free DMEM was added, and fluorescence imaging was performed using a confocal fluorescence microscope (Cy 5.5 channel).

HeLa cells [8] = assay: Real-time confocal imaging of HeLa cells with ALPIN-7; conditions: 1 µM
Procedure: Experimental conditions: Cultured HeLa cells were seeded in a confocal dish, and 1 µM of the fluorescent probe ALPIN-7 was added to the HeLa cells. Time-dependent fluorescence imaging was performed using a confocal fluorescence microscope (Cy 5.5 channel).

CCC[N+]1=C(/C=C/C2=C3Oc4cc(OCc5ccc(OP(=O)(O)O)cc5)c(COC(=O)NCc5cn(CC[N+](C)(C)CCCS(=O)(=O)O)nn5)cc4C=C3CCC2)C(C)(C)c2cc(I)ccc21
fluorescence of cell pellet after incubation and centrifugation (HeLa cells [1]): distinct blue fluorescence
photosensitizer concentration in HeLa cells (HeLa cells [1]; 4 µM, 1 × 10^5 cells, 37°C, 1 hour, calculated from cell volume): 2.4 mM
fluorescence intensity within the cells relative to incubation medium (HeLa cells [1]; 4 µM, 37°C, 1 hour): more than 2000 fold
total concentration in the incubation medium and wash buffer (HeLa cells [1]; 4 µM, 37°C, 1 hour): 0.00087 mM
green fluorescence of DCF (ROS generation) (HeLa cells [2]; ALPIN-6I 0, 1, 2, 4 µM or ALPIN-4I 4 µM, H2DCFDA 10 µM, 660 nm, 36 mW, 2 minutes): increased with increasing concentration of ALPIN-6I
green fluorescence of DCF (ROS generation) without light (HeLa cells [2]; absence of light irradiation): no green fluorescence was observed in the absence of light irradiation
activation / ROS generation in negative cells (HEK293 cells): cannot be activated in negative cells
live/dead cell staining after light irradiation (HeLa cells [3]; 4 µM, 1 hour, 660 nm, 36 mW, 10 minutes, 24 hours, PI red = dead, AM green = live): PI staining
conditions required for activation to kill tumors (HeLa cells [3]; HeLa vs HEK293, with vs without light): Only in the presence of both ALP and light irradiation
selective killing in mixed cell population [4]: can selectively kill ALP-overexpressing HeLa cells without affecting normal cells
fluorescence at the tumor site at 1 hour post-injection (HeLa tumor [5]; 200 µL of 40 µM in PBS, tail vein): strong fluorescence signals at the tumor site
time up to which significant tumor-associated fluorescence remained detectable (HeLa tumor [5]; intravenous administration): up to 24 hours
Tumor volume (HeLa tumor [6]; Day 12): 122.30 ± 17.56 mm^3
Tumor volume (HeLa tumor [6]; Day 14): 39.73 ± 18.93 mm^3
Tumor volume (HeLa tumor [6]; Day 16): 7.70 ± 7.01 mm^3
Tumor volume (HeLa tumor [6]; Day 18): 0.00 mm^3
Tumor volume (HeLa tumor [6]; Day 20): 0.00 mm^3
tumors of the tumor-bearing mice after 4 days of treatment (HeLa tumor [6]; after 4 days of treatment): completely disappeared
tumor recurrence (HeLa tumor [6]; after 18 days of treatment): no recurrence observed

CCC[N+]1=C(/C=C/C2=C3Sc4cc(OCc5ccc(OP(=O)(O)O)cc5)c(COC(=O)NCc5cn(CC[N+](C)(C)CCCS(=O)(=O)O)nn5)cc4C=C3CCC2)C(C)(C)c2ccccc21
fluorescence imaging of cells ([7]; 37°C, 30 minutes, compared with control probe ALPIN-8): more pronounced fluorescence imaging of ALP-overexpressing cells
fluorescence labeling of HeLa cells in the ALP inhibitor group ([7]; HeLa cells pre-treated with Na3VO4 for 1 hour): reduced
time-dependent intracellular fluorescence (HeLa cells [8]): intracellular fluorescence intensity continuously increased over time
